Experimental data from US20260294870A1, “INDOLE LACTATE FOR THE TREATMENT OF MULTIPLE SCLEROSIS” (The Johns Hopkins University, priority 2023, published 2026).

Experiment: Circulating levels of indole lactate in people with MS and healthy controls (HPLC and tandem mass spectrometry)
Set-up: species or system human

SMILES: O=C(O)C(O)Cc1c[nH]c2ccccc12 (centres unmarked) [indole lactate, indole-3-lactic acid]
- mean difference in levels of indole lactate in the blood, people with MS compared to controls (95% CI: −7.19 to −4.33, p=2.61E−15): −5.76
- levels of indole lactate in the blood of people with MS compared to controls (people with MS vs healthy controls): significant reduction
